Measurements reported in PubChem BioAssay AID2685 (National Center for Advancing Translational Sciences (NCATS), 2010).
Some of the results follow. These are further read-outs of the screen, such as a control signal, another cell line or another target. No call is given for them. Most of these compounds were active or inconclusive in the main read-out, so they are no random draw. Words in brackets tell the shape of the fitted curve; partial curves, single points and poor fits give uncertain potencies.

Experiment: qHTS Assay for Lipid Storage Modulators in Drosophila S3 Cells;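 for cell number change: cells counted by Cell Tracker Red CMTPX staining in the red channel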
Conditions: BODIPY lipid droplet fluorescence, 18-24 h; for cell number change: measured here: cell count max response, cells fed with added oleic acid
Summary of the method: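 Drosophila S3 cells loaded with oleic acid (400 uM, as added) and compounds at several concentrations; lipid droplets imaged by 488-nm laser-scanning cytometry, 500–530 nm intensity and object ratio to cell channel. Percent activity normalized to 20 uM Triacsin C.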

[1] = measured here: cell number channel AC50, cells fed with added oleic acid
[2] = measured here: lipid fluorescence (Fed channel) AC50, cells fed with added oleic acid

CCN(CC)C(=O)C(C)N(C#N)c1nc(Cl)nc(N(C)C)n1 (stereo not drawn)
cell number change: -30.6%
AC50 [1]: 3.66 µM [falling, full curve, poor fit]
AC50 [2]: 29.1 µM [falling, single point]

COc1ccc(-n2nc(C(=O)NCC(=O)NCc3ccc(F)cc3)c3ccccc3c2=O)cc1
cell number change: -2.7%
AC50 [2]: 0.651 µM [rising, partial curve, poor fit]

COc1ccc(CCNC(=O)CN2C(=O)COc3ccc(S(=O)(=O)N4CCCC4)cc32)cc1OC
cell number change: -8.87%

CCNc1nc(NCC)nc(N/N=C/c2ccc(OC)cc2)n1
cell number change: 9.36%

Cc1c(/C(O)=C2\C(=O)C(=O)N(CCCN(C)C)C2c2ccccc2)cnn1-c1ccccc1 (stereo not drawn)
cell number change: 6.6%
AC50 [2]: 1.64 µM [falling, partial curve, poor fit]

COc1cc2c(cc1OC)-c1cc(Nc3cccc(F)c3)nc(=O)n1CC2
cell number change: -4.17%

CC(=O)Nc1ccc(NC(=O)[C@@H]2CCCC[C@@H]2C(=O)O)cc1
cell number change: 19.3%
AC50 [1]: 1.84 µM [falling, partial curve, poor fit]
AC50 [2]: 1.84 µM [falling, partial curve, poor fit]

O=S(Cc1ccccc1)CC(O)(c1ccc(Cl)cc1)c1ccc(Cl)cc1 (stereo not drawn)
cell number change: -33.6%
AC50 [1]: 29.1 µM [falling, single point]
AC50 [2]: 25.9 µM [falling, single point]

COc1ccc(CCNC(=O)c2c[nH]c3ccccc3c2=O)cc1OC
cell number change: -29.6%
AC50 [2]: 18.4 µM [falling, single point]

Cc1cnc(NC(=O)C2CCCC2)s1
cell number change: -18.8%
AC50 [1]: 3.66 µM [falling, single point]
AC50 [2]: 25.9 µM [falling, single point]

CC(C(N)=O)N1C(=O)C2C3C=CC(C3)C2C1=O (stereo not drawn)
AC50 [1]: 3.26 µM [falling, single point]

Oc1ccccc1/C=N/Nc1nccnc1Cl
cell number change: -36.4%
AC50 [1]: 0.259 µM [falling, full curve]

O=C(COC(=O)C1=COCCO1)NC(=O)c1ccc(OC(F)F)cc1
AC50 [1]: 0.013 µM [falling, full curve, poor fit]

CC1CCN(CCCNC(=O)c2cc3c(=O)n(C)c4ccccc4c3n2C)CC1
cell number change: 32.9%
AC50 [1]: 20.6 µM [rising, single point]
AC50 [2]: 20.6 µM [rising, partial curve]

COCCN(Cc1cc2cc3c(cc2nc1Cl)OCO3)C(=O)Nc1ccc(OC)cc1
cell number change: 25.6%
AC50 [1]: 0.291 µM [rising, full curve, poor fit]
AC50 [2]: 0.00517 µM [rising, full curve, poor fit]

O=C(C1=C[C@@H](c2ccc(Br)cc2)C[C@@H](OCc2ccc(CO)cc2)O1)N1CCN(Cc2ccc3c(c2)OCO3)CC1
cell number change: -25.5%
AC50 [2]: 2.91 µM [rising, single point]

CCn1nc(CC(=O)Nc2nnc(CC(=O)N3CCOCC3)s2)c2ccccc2c1=O
cell number change: 43.4%
AC50 [1]: 29.1 µM [rising, single point]
AC50 [2]: 9.2 µM [falling, partial curve]

CCN(CC(=O)Nc1ccc(NC(C)=O)cc1)C(=O)c1n[nH]c(=O)c2ccccc12
cell number change: 22.8%

O=C(Cc1ccccc1F)Nc1nc(-c2ccc(F)cc2)cs1
cell number change: -2.25%

CC1CCN(CCCCOc2ccccc2Br)CC1
cell number change: 16.1%
AC50 [1]: 0.259 µM [rising, full curve]
AC50 [2]: 1.16 µM [rising, full curve, poor fit]

COc1ccc(C)cc1S(=O)(=O)N1CCCC(C(=O)NC2CC2)C1 (stereo not drawn)
cell number change: 7.92%
AC50 [2]: 3.66 µM [falling, full curve]

Cc1ccc(NS(=O)(=O)c2cc(C(=O)NCc3cccnc3)ccc2C)cc1
cell number change: 2.89%

COc1ccc(N2C(=O)C3CCCN3C2c2cccc(C)c2)cc1 (stereo not drawn)
cell number change: 8.55%
AC50 [2]: 0.0058 µM [falling, full curve, poor fit]

CC1N(O)C(c2ccc(Cl)cc2Cl)N(O)C1(C)C (stereo not drawn)
cell number change: -6.64%
AC50 [1]: 4.61 µM [falling, single point]
AC50 [2]: 4.11 µM [rising, full curve, poor fit]

CCOc1ccccc1-c1nc(-c2ccncc2)no1
cell number change: 2.59%
AC50 [1]: 1.84 µM [rising, partial curve]

O=C1CCc2cc(S(=O)(=O)NC(Cc3ccccc3)C(=O)NCCC3=CCCCC3)ccc2N1 (stereo not drawn)
cell number change: 9.29%
AC50 [2]: 7.31 µM [rising, partial curve, poor fit]

O=C(Cn1ncc2c([nH]c3ccccc32)c1=O)NCCc1ccc(Cl)cc1
cell number change: 33.8%
AC50 [1]: 0.058 µM [rising, full curve, poor fit]
AC50 [2]: 29.1 µM [rising, single point]

Cc1c(C=O)c2cc(OCc3ccccc3)ccc2n1C
cell number change: -27.5%

COCCn1c(C)cc(C(=O)CSc2ccc3ccccc3n2)c1C
cell number change: 61.2%
AC50 [1]: 29.1 µM [rising, single point]

CCOc1ccc(NC(=O)C(CC)n2nc(C)c3c(C)n(-c4ccccc4)nc3c2=O)cc1 (stereo not drawn)
cell number change: 23.6%

O=C(C1=C(O)C(=O)N(CCN2CCOCC2)C1c1ccncc1)c1ccco1 (stereo not drawn)
cell number change: 8.59%
AC50 [2]: 29.1 µM [falling, single point]

CC(=O)N1CCN(CCN(CC2C(C)C=C(C)CC2C)C(C)=O)CC1 (stereo not drawn)
cell number change: -10.1%
AC50 [1]: 0.146 µM [falling, full curve, poor fit]
AC50 [2]: 5.8 µM [falling, full curve, poor fit]

CCn1c(SCc2ccc(C)cc2)nnc1-c1cnccn1
cell number change: 0.458%
AC50 [2]: 11.6 µM [rising, partial curve]

CC(=O)c1cc(F)ccc1OCC(=O)N1CCCc2ccccc21
cell number change: 18.1%
AC50 [2]: 29.1 µM [falling, single point]

COCCNC(=O)COc1ccccc1C
cell number change: 18.2%
AC50 [2]: 6.51 µM [rising, single point]

CCOc1ccc(NC(=O)CSc2nnnn2C2CCCC2)cc1
cell number change: 6.67%
AC50 [2]: 3.66 µM [rising, full curve]

O=C1/C(=C\c2ccc(O)c(O)c2)N=C2CCCCCN12
cell number change: -30.9%

Cc1cccc(NC(=O)c2cc([N+](=O)[O-])ccc2Cl)c1O
cell number change: 98.2%

CCCCOC(=O)NC(NCC(O)c1ccccc1)(C(F)(F)F)C(F)(F)F (stereo not drawn)
AC50 [1]: 0.731 µM [falling, single point]
AC50 [2]: 8.2 µM [falling, partial curve, poor fit]

COc1ccc(C(CNC(=O)c2cccc(S(=O)(=O)N(C)c3ccccc3)c2)N2CCCC2)cc1 (stereo not drawn)
cell number change: -14%
AC50 [2]: 0.0259 µM [falling, full curve, poor fit]

CC(/C=C/c1ccc2c(c1)OCO2)=N/NC(=O)c1ccc(C)nc1
cell number change: 21.9%
AC50 [2]: 18.4 µM [rising, single point]

CN(C)c1ccc(NS(=O)(=O)c2ccc(Cl)cc2)cc1
cell number change: -26.6%
AC50 [2]: 29.1 µM [falling, single point]

COc1cccc(Nc2nc(-c3sc(NC(=O)c4ccccc4)nc3C)cs2)c1
cell number change: 82.4%

O=C1c2ccccc2NC2(CCCC2)N1O
cell number change: -23.2%
AC50 [1]: 0.00517 µM [falling, full curve]
AC50 [2]: 0.651 µM [falling, full curve]

O=C(NCCN1CCN(C(=O)c2cccs2)CC1)c1cccs1
cell number change: 50.2%
AC50 [1]: 29.1 µM [rising, single point]
AC50 [2]: 29.1 µM [rising, single point]

NS(=O)(=O)c1ccc(NC(=O)c2cc(=O)c3ccccc3o2)cc1
cell number change: 13.7%

COC(=O)C1=C(C)N(C)C(=O)NC1c1cc(Cl)c(O)c(OC)c1 (stereo not drawn)
cell number change: 5.52%
AC50 [2]: 0.146 µM [falling, full curve, poor fit]

CCOC(=O)C1CCN(C(c2cc3ccc(C)cc3[nH]c2=O)c2nnnn2C2CCCCC2)CC1 (stereo not drawn)
AC50 [1]: 5.17 µM [rising, single point]

CC(C)c1ccc(OCC(=O)NC(=S)Nc2ccc3c4c(cccc24)CC3)cc1
cell number change: 7.35%
AC50 [2]: 18.4 µM [rising, partial curve]

CCOC(=O)c1cn(Cc2ccccc2)c2cc(C)nn2c1=O
cell number change: 14.4%
AC50 [1]: 6.51 µM [falling, single point]
AC50 [2]: 6.51 µM [falling, single point]

COc1ccc(NC(=O)CSc2ccc3nnc(-c4ccccn4)n3n2)cc1
cell number change: 7.51%
AC50 [2]: 6.51 µM [falling, single point]

Cc1ccc(-c2nc3ncccc3o2)cc1NC(=O)c1ccccc1
cell number change: 11.4%
AC50 [1]: 6.51 µM [falling, single point]

Cc1nnc(SCC(=O)NC(=O)NC2CCCC2)n1N
cell number change: -15.7%
AC50 [1]: 0.731 µM [falling, full curve, poor fit]
AC50 [2]: 3.26 µM [falling, partial curve, poor fit]

Cc1ccc([N+](=O)[O-])cc1NC(=O)/C=C/C(=O)O
cell number change: -6.43%

COC(=O)N/N=C/C1=CCC2CC1C2(C)C (stereo not drawn)
cell number change: -66.9%
AC50 [1]: 11.6 µM [falling, partial curve]

CCNCC(O)COCC(O)CNCC (stereo not drawn)
cell number change: 0.415%
AC50 [1]: 6.51 µM [falling, partial curve, poor fit]
AC50 [2]: 29.1 µM [falling, single point]

Cc1ccc(C(=O)Nc2ccc(Nc3ccccc3)cc2)c(Cl)c1
cell number change: -2.19%

CC(Cl)C(=O)NNC(=O)CNS(=O)(=O)c1ccccc1 (stereo not drawn)
cell number change: 23.9%
AC50 [2]: 4.11 µM [rising, full curve, poor fit]

Cc1c(C(=O)NC2CCN(Cc3ccccc3)C2)oc2ccc(Br)cc12 (stereo not drawn)
cell number change: 16.8%
AC50 [2]: 7.31 µM [rising, partial curve]

Cc1cc(C)n(-c2ccc(C(=O)C(C#N)c3nc4ccccc4n3C)cc2)n1 (stereo not drawn)
cell number change: -9.55%
